Mtb heat-shock: 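Assay on Mycobacterium tuberculosis, filed only as a heat shock assay from Cornell; the read-out is not stated. The concentration is filed as 10 mM, unlikely as a test dose, so the dose is not known. Direction is inferred from retests: higher values go with stronger inhibition. Of about 69,000 compounds tested this way, about 930 (1.4%) reached 50% or more in at least one test.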
Mtb growth Cornell: 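Whole-cell assay for inhibitors of Mycobacterium tuberculosis growth, labelled Cornell in the record; the read-out is not stated. The concentration is filed as 10 mM, unlikely as a test dose, so the dose is not known. Higher means stronger inhibition (inferred from two other growth screens of the library). Of about 53,000 compounds tested this way, about 900 (1.7%) reached 50% or more in at least one test.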
LdMetRS: 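Primary screen of methionyl-tRNA synthetase; the read-out is not stated. Target: Methionyl-tRNA synthetase (putative), Leishmania donovani (UniProt E9BF75). The test concentration is not given. Values are per cent inhibition. Size under these conditions: about 68,000 compounds, about 24 of them at 50% or above in at least one test.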

Sequences of proteins named here, by UniProt entry; tags and fusion partners are left off.
UniProt E9BF75, entry or part of it: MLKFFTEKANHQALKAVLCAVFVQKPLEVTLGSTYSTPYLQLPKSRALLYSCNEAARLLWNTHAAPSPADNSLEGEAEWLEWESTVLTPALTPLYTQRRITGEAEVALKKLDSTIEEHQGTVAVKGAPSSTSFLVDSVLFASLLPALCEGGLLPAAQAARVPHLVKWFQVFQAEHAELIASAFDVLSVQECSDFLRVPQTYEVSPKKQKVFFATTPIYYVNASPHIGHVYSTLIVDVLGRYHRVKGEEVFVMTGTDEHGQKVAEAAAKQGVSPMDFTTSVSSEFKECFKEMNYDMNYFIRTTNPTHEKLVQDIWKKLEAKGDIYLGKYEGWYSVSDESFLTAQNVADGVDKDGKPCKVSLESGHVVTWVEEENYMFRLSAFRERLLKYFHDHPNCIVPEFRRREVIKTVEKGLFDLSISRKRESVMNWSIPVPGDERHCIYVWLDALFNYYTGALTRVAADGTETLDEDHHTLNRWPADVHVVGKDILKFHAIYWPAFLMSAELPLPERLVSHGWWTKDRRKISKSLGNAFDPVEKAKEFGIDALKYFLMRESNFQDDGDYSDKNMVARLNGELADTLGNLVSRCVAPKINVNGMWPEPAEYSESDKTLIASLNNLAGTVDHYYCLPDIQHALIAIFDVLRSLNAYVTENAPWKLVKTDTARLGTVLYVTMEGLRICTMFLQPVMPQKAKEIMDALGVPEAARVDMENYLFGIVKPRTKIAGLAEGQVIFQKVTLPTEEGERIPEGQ

Results are percentages, as filed.
How 0% and 100% were set is not recorded. Most values in the screen are low, and negative values occur.
This is an unselected part of the compounds tested.
A dash means the value is not listed here; it may have been measured.

{"structure": "CNS(=O)(=O)Cc1ccc(CNC(=O)Nc2cn[nH]c2)cc1", "Mtb heat-shock": 24.09, "Mtb growth Cornell": 5.435, "LdMetRS": 9.859}
{"structure": "CC(NC(=O)c1ccc(Cl)cc1)c1nnc(SCC(N)=O)n1C", "stereo": "centres unmarked", "Mtb heat-shock": 20.51, "LdMetRS": 23.37}
{"structure": "CC(C)c1cc(C(=O)N2CCC3(CC2)c2ccccc2[C@@H](N)[C@@H]3O)cs1", "Mtb heat-shock": 30.77, "Mtb growth Cornell": 37.04, "LdMetRS": 12.01}
{"structure": "CN(C(=O)c1ccon1)[C@@H]1CCC[C@@H](Oc2ccccc2)[C@@H]1O", "Mtb heat-shock": -10.57, "Mtb growth Cornell": -13.46, "LdMetRS": 16.08}
{"structure": "CCc1c(C)[nH]c(C2(N)CCCC2)nc1=O.Cl", "Mtb heat-shock": -24.54, "Mtb growth Cornell": 12.68}
{"structure": "CCCN1CCC2(CC1)CN(C(=O)c1cccnc1)c1ccc(F)cc12", "LdMetRS": 13.49}
{"structure": "CCOC(C)c1nc(CN2CCC(C3OCCO3)CC2)cs1", "stereo": "centres unmarked", "Mtb heat-shock": -16.89, "Mtb growth Cornell": 19.58, "LdMetRS": 5.686}
{"structure": "CCCS(=O)(=O)N1CCc2c(COCC)cncc2C1", "LdMetRS": 8.711}
{"structure": "COc1ccc([C@@H]2CN(C(=O)c3cscn3)C[C@H]2C(=O)O)cc1", "Mtb heat-shock": -8.568, "Mtb growth Cornell": 5.336, "LdMetRS": 5.806}
{"structure": "CCN(C)c1ncnc2c1CCN(C(=O)N(C)C)CC2", "LdMetRS": 4.301}
{"structure": "[H][C@]12CC[C@]([H])(CN(CC(=O)N(C)C)C1)N(Cc1ccc(Cl)cc1Cl)C2", "Mtb heat-shock": 2.775, "Mtb growth Cornell": -11.3}
{"structure": "C/C(=C\\c1ccco1)CN(C)C(C)Cc1ccccn1", "stereo": "centres unmarked", "Mtb heat-shock": -53.2, "LdMetRS": 6.593}
{"structure": "O=C(c1cc(COc2ccc3c(c2)OCO3)[nH]n1)N1CCCC(O)C1", "stereo": "centres unmarked", "Mtb heat-shock": 6.457, "Mtb growth Cornell": 44.89, "LdMetRS": 17.73}
{"structure": "O=C(O)C(F)(F)F.O=S(=O)(C1CC1)N1Cc2[nH]nc(COCC3CC3)c2C1", "Mtb heat-shock": -2.691, "Mtb growth Cornell": 26.14}
{"structure": "Cc1noc(NC(=O)CCNC(=O)c2ccc(Br)cc2)n1", "Mtb heat-shock": -35.97, "Mtb growth Cornell": -19.08, "LdMetRS": 5.714}
{"structure": "Cc1ccsc1C(=O)N1CCc2ncc(CN(C)C)n2CC1", "LdMetRS": 16.25}
{"structure": "CCC(C)NC(=O)CS(=O)(=O)Cc1cc(Cl)c2c(c1)OCCCO2", "stereo": "centres unmarked", "Mtb heat-shock": -24.21, "LdMetRS": 16.62}
{"structure": "Cc1ccc(C(=O)N(CC2CCCO2)c2ccncc2)o1", "stereo": "centres unmarked", "Mtb heat-shock": 7.873, "Mtb growth Cornell": 19.79, "LdMetRS": 10.59}
{"structure": "COC(C)C(=O)NS(=O)(=O)c1cccc2cc(C)cnc12", "stereo": "centres unmarked", "Mtb heat-shock": 7.22, "Mtb growth Cornell": 28.25, "LdMetRS": 9.926}
{"structure": "CCNc1ncc(C(=O)N(C)Cc2nc3cc(Cl)ccc3[nH]2)cn1", "Mtb heat-shock": 16.41, "Mtb growth Cornell": -26.9, "LdMetRS": 11.17}
{"structure": "Cc1ccc(-c2nc(CN3CCn4c(nnc4C4CC4)C3)cs2)o1", "Mtb heat-shock": 171.6, "Mtb growth Cornell": 13.56, "LdMetRS": 14.72}

Some entries from above, unchanged:

| structure | Mtb heat-shock | Mtb growth Cornell | LdMetRS |
|---|---|---|---|
| `CCC(C)NC(=O)CS(=O)(=O)Cc1cc(Cl)c2c(c1)OCCCO2` (centres unmarked) | -24.21 | - | 16.62 |
| `CC(C)c1cc(C(=O)N2CCC3(CC2)c2ccccc2[C@@H](N)[C@@H]3O)cs1` | 30.77 | 37.04 | 12.01 |

Source: ChEMBL document CHEMBL3988442, “University of Dundee, Small-Polar-MMV Screening Library” (2021).